According to patent US20120034613A1, “Apparatus and Method for Testing Relationships Between Gene Expression and Physical Appearance of Skin” (NSE Products, Inc., priority 2010, published 2012):
This continues a long series; more values of the same kind are listed elsewhere.

System: EpidermFT™ Skin Model (EFT-400) full thickness skin cultures
Experiment: Affymetrix GeneChip HG U133 Plus 2.0 microarray global gene expression, agent-exposed vs untreated skin cultures
Format: cell-based, human
[1] = 218772_x_at TMEM38B, Salicin 0.5%, 24 hr
[2] = 219374_s_at ALG9, Salicin 0.5%, 24 hr
[3] = 219390_at FKBP14, Salicin 0.5%, 24 hr
[4] = 219500_at CLCF1, Salicin 0.5%, 24 hr
[5] = 219631_at LRP12, Salicin 0.5%, 24 hr
[6] = 219682_s_at TBX3, Salicin 0.5%, 24 hr
[7] = 219910_at FICD, Salicin 0.5%, 24 hr
[8] = 219985_at HS3ST3A1, Salicin 0.5%, 24 hr
[9] = 220092_s_at ANTXR1, Salicin 0.5%, 24 hr
[10] = 220254_at LRP12, Salicin 0.5%, 24 hr
[11] = 220301_at CCDC102B, Salicin 0.5%, 24 hr
[12] = 220745_at IL19, Salicin 0.5%, 24 hr
[13] = 220980_s_at ADPGK, Salicin 0.5%, 24 hr
[14] = 221059_s_at COTL1, Salicin 0.5%, 24 hr
[15] = 221918_at PCTK2, Salicin 0.5%, 24 hr
[16] = 221958_s_at GPR177, Salicin 0.5%, 24 hr
[17] = 221978_at HLA-F, Salicin 0.5%, 24 hr
[18] = 222619_at ZNF281, Salicin 0.5%, 24 hr
[19] = 222731_at ZDHHC2, Salicin 0.5%, 24 hr
[20] = 222802_at EDN1, Salicin 0.5%, 24 hr
[21] = 223222_at SLC25A19, Salicin 0.5%, 24 hr
[22] = 223296_at SLC25A33, Salicin 0.5%, 24 hr
[23] = 223315_at NTN4, Salicin 0.5%, 24 hr
[24] = 223463_at RAB23, Salicin 0.5%, 24 hr
[25] = 223866_at ARMC2, Salicin 0.5%, 24 hr
[26] = 224455_s_at ADPGK, Salicin 0.5%, 24 hr
[27] = 224523_s_at C3orf26, Salicin 0.5%, 24 hr
[28] = 224826_at RP5-1022P6.2, Salicin 0.5%, 24 hr
[29] = 225174_at DNAJC10, Salicin 0.5%, 24 hr
[30] = 225589_at SH3RF1, Salicin 0.5%, 24 hr
[31] = 226001_at KLHL5, Salicin 0.5%, 24 hr
[32] = 226337_at SCYL1BP1, Salicin 0.5%, 24 hr
[33] = 226890_at WDR35, Salicin 0.5%, 24 hr
[34] = 227027_at GFPT1, Salicin 0.5%, 24 hr
[35] = 227220_at NFXL1, Salicin 0.5%, 24 hr
[36] = 227294_at ZNF689, Salicin 0.5%, 24 hr
[37] = 227351_at C16orf52, Salicin 0.5%, 24 hr
[38] = 227445_at ZNF689, Salicin 0.5%, 24 hr
[39] = 227621_at WTAP, Salicin 0.5%, 24 hr
[40] = 227658_s_at PLEKHA3, Salicin 0.5%, 24 hr
[41] = 227660_at ANTXR1, Salicin 0.5%, 24 hr
[42] = 228368_at ARHGAP20, Salicin 0.5%, 24 hr
[43] = 228423_at MAP9, Salicin 0.5%, 24 hr
[44] = 228653_at SAMD5, Salicin 0.5%, 24 hr
[45] = 228986_at OSBPL8, Salicin 0.5%, 24 hr
[46] = 229271_x_at COL11A1, Salicin 0.5%, 24 hr
[47] = 229287_at PCNX, Salicin 0.5%, 24 hr
[48] = 229404_at TWIST2, Salicin 0.5%, 24 hr
[49] = 229555_at GALNT5, Salicin 0.5%, 24 hr
[50] = 229588_at DNAJC10, Salicin 0.5%, 24 hr
[51] = 229868_s_at GDF15, Salicin 0.5%, 24 hr
[52] = 229942_at BNC2, Salicin 0.5%, 24 hr
[53] = 230031_at HSPA5, Salicin 0.5%, 24 hr
[54] = 230123_at NECAP2, Salicin 0.5%, 24 hr
[55] = 230207_s_at DOCK5, Salicin 0.5%, 24 hr
[56] = 231824_at LARP2, Salicin 0.5%, 24 hr
[57] = 235061_at PPM1K, Salicin 0.5%, 24 hr
[58] = 235236_at LOC100131897, Salicin 0.5%, 24 hr
[59] = 235338_s_at SETDB2, Salicin 0.5%, 24 hr
[60] = 235359_at LRRC33, Salicin 0.5%, 24 hr
[61] = 235391_at FAM92A1, Salicin 0.5%, 24 hr
[62] = 235550_at MAP9, Salicin 0.5%, 24 hr
[63] = 235706_at CPM, Salicin 0.5%, 24 hr
[64] = 236129_at GALNT5, Salicin 0.5%, 24 hr
[65] = 238417_at PGM2L1, Salicin 0.5%, 24 hr
[66] = 238497_at TMEM136, Salicin 0.5%, 24 hr
[67] = 238669_at PTGS1, Salicin 0.5%, 24 hr
[68] = 238877_at EYA4, Salicin 0.5%, 24 hr
[69] = 239261_s_at CORIN, Salicin 0.5%, 24 hr
[70] = 239286_at CDH11, Salicin 0.5%, 24 hr
[71] = 239468_at MKX, Salicin 0.5%, 24 hr
[72] = 240728_at PLCB4, Salicin 0.5%, 24 hr
[73] = 241372_at ZC3H6, Salicin 0.5%, 24 hr
[74] = 242281_at GLUL, Salicin 0.5%, 24 hr
[75] = 244246_at MIPOL1, Salicin 0.5%, 24 hr
[76] = 244808_at GRAMD1A, Salicin 0.5%, 24 hr
[77] = 244852_at DSEL, Salicin 0.5%, 24 hr
[78] = 1552309_a_at NEXN, Salicin 0.5%, 24 hr
[79] = 1554036_at ZBTB24, Salicin 0.5%, 24 hr
[80] = 1554140_at WDR78, Salicin 0.5%, 24 hr
[81] = 1554414_a_at OSGIN2, Salicin 0.5%, 24 hr
[82] = 1554474_a_at MOXD1, Salicin 0.5%, 24 hr
[83] = 1555279_at ARMC8, Salicin 0.5%, 24 hr
[84] = 1555724_s_at TAGLN, Salicin 0.5%, 24 hr
[85] = 1556113_at DKFZp451A211, Salicin 0.5%, 24 hr
[86] = 1559060_a_at FNIP1, Salicin 0.5%, 24 hr
[87] = 1559582_at RHOQ, Salicin 0.5%, 24 hr
[88] = 1560007_at LOC645984, Salicin 0.5%, 24 hr
[89] = 1570515_a_at FILIP1, Salicin 0.5%, 24 hr

Question: Which results are given for OCc1ccccc1O[C@@H]1O[C@H](CO)[C@@H](O)[C@H](O)[C@H]1O [Salicin, 2-(Hydroxymethyl)phenyl β-D-glucospyranoside]?
Answer: Fold change (218541_s_at C8orf4, Salicin 0.5%, 24 hr): 2.239; Direction [1]: up; Fold change [1]: 2.296; Direction [2]: up; Fold change [2]: 2.062; Direction [3]: up; Fold change [3]: 2.241; Direction [4]: up; Fold change [4]: 2.165; Direction [5]: up; Fold change [5]: 2.181; Direction [6]: up; Fold change [6]: 2.052; Direction [7]: up; Fold change [7]: 2.221; Direction [8]: up; Fold change [8]: 2.209; Direction [9]: up; Fold change [9]: 2.229; Direction [10]: up; Fold change [10]: 2.223; Direction [11]: up; Fold change [11]: 2.17; Direction [12]: up; Fold change [12]: 2.278; Direction [13]: up; Fold change [13]: 2.057; Direction [14]: up; Fold change [14]: 2.064; Direction [15]: up; Fold change [15]: 2.268; Direction [16]: up; Fold change [16]: 2.21; Direction [17]: up; Fold change [17]: 2.208; Direction [18]: up; Fold change [18]: 2.223; Direction [19]: up; Fold change [19]: 2.053; Direction [20]: up; Fold change [20]: 2.26; Direction [21]: up; Fold change [21]: 2.243; Direction [22]: up; Fold change [22]: 2.176; Direction [23]: up; Fold change [23]: 2.241; Direction [24]: up; Fold change [24]: 2.249; Direction [25]: up; Fold change [25]: 2.208; Direction [26]: up; Fold change [26]: 2.259; Direction [27]: up; Fold change [27]: 2.235; Direction [28]: up; Fold change [28]: 2.298; Direction [29]: up; Fold change [29]: 2.203; Direction [30]: up; Fold change [30]: 2.254; Direction [31]: up; Fold change [31]: 2.175; Direction [32]: up; Fold change [32]: 2.211; Direction [33]: up; Fold change [33]: 2.236; Direction [34]: up; Fold change [34]: 2.067; Direction [35]: up; Fold change [35]: 2.19; Direction [36]: up; Fold change [36]: 2.176; Direction [37]: up; Fold change [37]: 2.221; Direction [38]: up; Fold change [38]: 2.243; Direction [39]: up; Fold change [39]: 2.282; Direction [40]: up; Fold change [40]: 2.065; Direction [41]: up; Fold change [41]: 2.179; Direction [42]: up; Fold change [42]: 2.259; Direction [43]: up; Fold change [43]: 2.27; Direction [44]: up; Fold change [44]: 2.259; Direction [45]: up; Fold change [45]: 2.226; Direction [46]: up; Fold change [46]: 2.182; Direction [47]: up; Fold change [47]: 2.071; Direction [48]: up; Fold change [48]: 2.072; Direction [49]: up; Fold change [49]: 2.296; Direction [50]: up; Fold change [50]: 2.229; Direction [51]: up; Fold change [51]: 2.205; Direction [52]: up; Fold change [52]: 2.062; Direction [53]: up; Fold change [53]: 2.204; Direction [54]: up; Fold change [54]: 2.23; Direction [55]: up; Fold change [55]: 2.279; Direction [56]: up; Fold change [56]: 2.044; Direction [57]: up; Fold change [57]: 2.042; Direction [58]: up; Fold change [58]: 2.285; Direction [59]: up; Fold change [59]: 2.277; Direction [60]: up; Fold change [60]: 2.045; Direction [61]: up; Fold change [61]: 2.054; Direction [62]: up; Fold change [62]: 2.202; Direction [63]: up; Fold change [63]: 2.202; Direction [64]: up; Fold change [64]: 2.184; Direction [65]: up; Fold change [65]: 2.044; Direction [66]: up; Fold change [66]: 2.168; Direction [67]: up; Fold change [67]: 2.194; Direction [68]: up; Fold change [68]: 2.267; Direction [69]: up; Fold change [69]: 2.044; Direction [70]: up; Fold change [70]: 2.204; Direction [71]: up; Fold change [71]: 2.167; Direction [72]: up; Fold change [72]: 2.207; Direction [73]: up; Fold change [73]: 2.296; Direction [74]: up; Fold change [74]: 2.061; Direction [75]: up; Fold change [75]: 2.046; Direction [76]: up; Fold change [76]: 2.261; Direction [77]: up; Fold change [77]: 2.251; Direction [78]: up; Fold change [78]: 2.177; Direction [79]: up; Fold change [79]: 2.197; Direction [80]: up; Fold change [80]: 2.159; Direction [81]: up; Fold change [81]: 2.205; Direction [82]: up; Fold change [82]: 2.165; Direction [83]: up; Fold change [83]: 2.291; Direction [84]: up; Fold change [84]: 2.184; Direction [85]: up; Fold change [85]: 2.252; Direction [86]: up; Fold change [86]: 2.284; Direction [87]: up; Fold change [87]: 2.293; Direction [88]: up; Fold change [88]: 2.286; Direction [89]: up; Fold change [89]: 2.258; Direction (direction of regulation (up/down) of the probe set / gene named in the row, Salicin 0.5% vs Untreated Control, 24 hr treatment): down
